# Results as given in PMC12547303.
# By UniProt entry, the sequences of proteins in these tests, tags left out. Where a name states a change or a piece, a line headed by the entry shows the natural chain unless it says otherwise.
# UniProt Q923J1: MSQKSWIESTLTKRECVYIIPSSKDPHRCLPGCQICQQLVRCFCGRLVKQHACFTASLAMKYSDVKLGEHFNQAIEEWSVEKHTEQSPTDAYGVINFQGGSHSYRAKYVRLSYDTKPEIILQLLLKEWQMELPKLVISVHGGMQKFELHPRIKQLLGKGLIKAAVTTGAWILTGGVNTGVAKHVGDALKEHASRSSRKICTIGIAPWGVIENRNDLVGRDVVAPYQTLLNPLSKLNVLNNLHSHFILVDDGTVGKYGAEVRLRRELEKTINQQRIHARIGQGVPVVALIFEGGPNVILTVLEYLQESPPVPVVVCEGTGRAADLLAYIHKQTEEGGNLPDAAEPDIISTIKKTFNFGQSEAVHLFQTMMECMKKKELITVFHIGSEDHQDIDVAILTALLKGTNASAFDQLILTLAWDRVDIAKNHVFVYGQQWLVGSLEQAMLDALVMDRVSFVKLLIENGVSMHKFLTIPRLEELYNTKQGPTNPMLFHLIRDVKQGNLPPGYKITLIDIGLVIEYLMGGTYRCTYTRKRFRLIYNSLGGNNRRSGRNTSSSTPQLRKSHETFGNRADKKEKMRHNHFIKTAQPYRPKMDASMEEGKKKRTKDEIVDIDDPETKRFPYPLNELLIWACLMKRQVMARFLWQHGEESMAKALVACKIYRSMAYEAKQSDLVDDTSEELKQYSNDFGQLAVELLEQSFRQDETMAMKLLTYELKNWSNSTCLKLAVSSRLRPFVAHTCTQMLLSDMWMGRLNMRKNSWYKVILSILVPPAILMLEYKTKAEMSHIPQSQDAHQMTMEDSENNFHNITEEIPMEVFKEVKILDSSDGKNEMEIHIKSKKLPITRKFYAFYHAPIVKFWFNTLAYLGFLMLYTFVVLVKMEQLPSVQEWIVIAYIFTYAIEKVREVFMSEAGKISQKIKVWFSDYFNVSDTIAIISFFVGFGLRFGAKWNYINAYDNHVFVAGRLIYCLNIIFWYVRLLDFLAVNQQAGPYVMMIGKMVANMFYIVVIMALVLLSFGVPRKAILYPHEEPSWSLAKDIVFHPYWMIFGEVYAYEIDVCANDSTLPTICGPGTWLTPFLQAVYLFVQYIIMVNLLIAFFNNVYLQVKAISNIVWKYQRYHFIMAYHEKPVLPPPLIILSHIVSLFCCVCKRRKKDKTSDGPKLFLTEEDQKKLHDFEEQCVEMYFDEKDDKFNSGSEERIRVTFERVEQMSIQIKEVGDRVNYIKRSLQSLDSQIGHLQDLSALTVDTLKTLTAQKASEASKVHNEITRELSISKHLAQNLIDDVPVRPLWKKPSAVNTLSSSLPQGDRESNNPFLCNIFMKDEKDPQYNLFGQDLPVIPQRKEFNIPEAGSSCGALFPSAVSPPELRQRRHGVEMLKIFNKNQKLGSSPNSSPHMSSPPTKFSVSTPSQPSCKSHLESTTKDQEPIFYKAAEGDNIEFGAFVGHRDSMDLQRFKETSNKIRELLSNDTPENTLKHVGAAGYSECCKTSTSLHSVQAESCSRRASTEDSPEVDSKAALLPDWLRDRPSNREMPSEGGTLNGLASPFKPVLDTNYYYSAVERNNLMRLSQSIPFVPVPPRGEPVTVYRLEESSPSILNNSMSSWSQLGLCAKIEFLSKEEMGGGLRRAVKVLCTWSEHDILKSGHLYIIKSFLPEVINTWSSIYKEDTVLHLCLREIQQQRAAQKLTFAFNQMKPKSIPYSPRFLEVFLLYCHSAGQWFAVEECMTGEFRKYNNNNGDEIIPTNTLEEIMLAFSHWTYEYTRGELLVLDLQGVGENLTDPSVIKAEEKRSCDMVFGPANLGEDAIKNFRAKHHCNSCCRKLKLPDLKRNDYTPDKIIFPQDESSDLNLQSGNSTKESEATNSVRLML
# No constants are given. Whether binding was seen depends on the method and setting. In cells and extracts the contact can be indirect. Some results given as binding are weak or reduced against the parent protein; the word gives no strength. For part of these data: Tags and fused reporters may be left off the sequences shown.
# What was measured:
# [1] = biological target: HA-tagged kinase-inactive TRPM7-K1646R (mouse) (UniProt Q923J1); test: co-IP; HEK-293T co-transfected for 48 h; HA-TRPM7 immunoprecipitated with anti-HA magnetic beads from mild lysis buffer overnight at 4 °C, washed with PBS 0.1% Triton X-100; FLAG-tagged CNNM2 constructs detected by Western blot; media with 20 mM MgCl2 (Fig. 1B); 1 mM Mg·ATP in the lysis buffer in some samples with SUMO-CBS
# [2] = biological target: HA-tagged TRPM7 (murine) (mouse) (UniProt Q923J1); test: as above
# [3] = biological target: TRPM7 (construct of Fig. S3) (mouse) (UniProt Q923J1); test: co-IP; specificity test of Fig. S3; constructs, cells and conditions not shown
binding [1],binding [2],binding [3],Binder
binds,binds,,"FLAG-tagged mouse CNNM2, full length (protein, UniProt Q3TWN3 1-875) MIGCGACEPEVKMAGGQAAAALPTWKMAARRSLSARGRGVLQAAAGRLLPLLLLSCCWGAGGCTAAGENEETVIIGLRLEDTNDVSFMEGGALRVSERTRVKLRVYGQNINNETWSRIAFTEHERRRHTPSERGLGGPAPPEPDSGPQRCGIRTSDIIILPHIILNRRTSGIIEIEIKPLRKMEKSKSYYLCTSLSTPALGAGGSGSASGTVGGKGGAGVAGLPPPPWAETTWIYHDGEDTKMIVGEEKKFLLPFWLQVIFISLLLCLSGMFSGLNLGLMALDPMELRIVQNCGTEKEKNYAKRIEPVRRQGNYLLCSLLLGNVLVNTTLTILLDDIAGSGLVAVVVSTIGIVIFGEIVPQAICSRHGLAVGANTIFLTKFFMMMTFPASYPVSKLLDCVLGQEIGTVYNREKLLEMLRVTDPYNDLVKEELNIIQGALELRTKTVEDVMTPLRDCFMITGEAILDFNTMSEIMESGYTRIPVFEGERSNIVDLLFVKDLAFVDPDDCTPLKTITKFYNHPLHFVFNDTKLDAMLEEFKKGKSHLAIVQRVNNEGEGDPFYEVLGIVTLEDVIEEIIKSEILDETDLYTDNRTKKKVAHRERKQDFSAFKQTDSEMKVKISPQLLLAMHRFLATEVEAFSPSQMSEKILLRLLKHPNVIQELKYDEKNKKAPECYLYQRNKPVDYFVLILQGKVEVEAGKEGMKFEASAFSYYGVMALTASPVPLSLSRTFVVSRTEVLAAGSPGENKSPPRPCGLNHSDSLSRSDRIDAMTPTLGSSNNQLSSSFLQVYIPDYSVRALSDLQFVKISRQQYQNALMASRMDKTPQSSDSENTKIELTLTELHDGLPDETANLLNEQNCVSHNKANHSLHSEGAI"
,,binds,"CNNM2 (construct of Fig. S3) (protein, UniProt Q3TWN3 1-875) MIGCGACEPEVKMAGGQAAAALPTWKMAARRSLSARGRGVLQAAAGRLLPLLLLSCCWGAGGCTAAGENEETVIIGLRLEDTNDVSFMEGGALRVSERTRVKLRVYGQNINNETWSRIAFTEHERRRHTPSERGLGGPAPPEPDSGPQRCGIRTSDIIILPHIILNRRTSGIIEIEIKPLRKMEKSKSYYLCTSLSTPALGAGGSGSASGTVGGKGGAGVAGLPPPPWAETTWIYHDGEDTKMIVGEEKKFLLPFWLQVIFISLLLCLSGMFSGLNLGLMALDPMELRIVQNCGTEKEKNYAKRIEPVRRQGNYLLCSLLLGNVLVNTTLTILLDDIAGSGLVAVVVSTIGIVIFGEIVPQAICSRHGLAVGANTIFLTKFFMMMTFPASYPVSKLLDCVLGQEIGTVYNREKLLEMLRVTDPYNDLVKEELNIIQGALELRTKTVEDVMTPLRDCFMITGEAILDFNTMSEIMESGYTRIPVFEGERSNIVDLLFVKDLAFVDPDDCTPLKTITKFYNHPLHFVFNDTKLDAMLEEFKKGKSHLAIVQRVNNEGEGDPFYEVLGIVTLEDVIEEIIKSEILDETDLYTDNRTKKKVAHRERKQDFSAFKQTDSEMKVKISPQLLLAMHRFLATEVEAFSPSQMSEKILLRLLKHPNVIQELKYDEKNKKAPECYLYQRNKPVDYFVLILQGKVEVEAGKEGMKFEASAFSYYGVMALTASPVPLSLSRTFVVSRTEVLAAGSPGENKSPPRPCGLNHSDSLSRSDRIDAMTPTLGSSNNQLSSSFLQVYIPDYSVRALSDLQFVKISRQQYQNALMASRMDKTPQSSDSENTKIELTLTELHDGLPDETANLLNEQNCVSHNKANHSLHSEGAI"
